The target in experiment [1] is T1, USP11(C318S)-GFP (catalytically inactive USP11, GFP-tagged) (human) (UniProt P51784).
T1 sequence: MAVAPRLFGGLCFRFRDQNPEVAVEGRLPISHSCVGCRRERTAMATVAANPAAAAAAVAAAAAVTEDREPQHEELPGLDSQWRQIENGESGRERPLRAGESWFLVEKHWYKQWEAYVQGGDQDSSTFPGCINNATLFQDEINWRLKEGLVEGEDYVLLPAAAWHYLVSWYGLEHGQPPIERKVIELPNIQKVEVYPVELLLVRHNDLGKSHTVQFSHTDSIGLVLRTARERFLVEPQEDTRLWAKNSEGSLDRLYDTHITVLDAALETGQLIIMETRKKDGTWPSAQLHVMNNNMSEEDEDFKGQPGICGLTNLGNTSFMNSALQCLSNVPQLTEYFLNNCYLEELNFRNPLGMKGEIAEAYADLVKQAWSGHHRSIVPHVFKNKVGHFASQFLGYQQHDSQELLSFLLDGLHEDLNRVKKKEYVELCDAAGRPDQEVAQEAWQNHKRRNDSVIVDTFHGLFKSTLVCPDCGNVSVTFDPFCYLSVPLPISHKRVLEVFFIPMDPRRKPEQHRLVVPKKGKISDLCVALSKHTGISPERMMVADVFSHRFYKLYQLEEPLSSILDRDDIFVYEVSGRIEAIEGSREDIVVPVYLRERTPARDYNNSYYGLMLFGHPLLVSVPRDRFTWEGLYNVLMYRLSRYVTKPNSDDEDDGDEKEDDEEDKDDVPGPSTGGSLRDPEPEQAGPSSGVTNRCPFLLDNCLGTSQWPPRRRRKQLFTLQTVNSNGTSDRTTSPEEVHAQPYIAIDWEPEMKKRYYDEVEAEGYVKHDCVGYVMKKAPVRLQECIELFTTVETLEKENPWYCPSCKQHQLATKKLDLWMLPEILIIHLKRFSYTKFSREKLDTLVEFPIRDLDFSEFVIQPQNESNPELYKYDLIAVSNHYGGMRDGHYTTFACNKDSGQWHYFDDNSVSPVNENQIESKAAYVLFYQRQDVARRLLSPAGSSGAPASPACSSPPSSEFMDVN
Kind of experiment: affinity purification with mass spectrometry; GFP-Trap IP of USP11(C318S)-GFP from 293 cells treated with Torin 1 for 4 h, compared with GFP alone; label-free quantification, three biological replicates.

By UniProt entry, the sequences of proteins in these tests, tags left out.
UniProt Q93009: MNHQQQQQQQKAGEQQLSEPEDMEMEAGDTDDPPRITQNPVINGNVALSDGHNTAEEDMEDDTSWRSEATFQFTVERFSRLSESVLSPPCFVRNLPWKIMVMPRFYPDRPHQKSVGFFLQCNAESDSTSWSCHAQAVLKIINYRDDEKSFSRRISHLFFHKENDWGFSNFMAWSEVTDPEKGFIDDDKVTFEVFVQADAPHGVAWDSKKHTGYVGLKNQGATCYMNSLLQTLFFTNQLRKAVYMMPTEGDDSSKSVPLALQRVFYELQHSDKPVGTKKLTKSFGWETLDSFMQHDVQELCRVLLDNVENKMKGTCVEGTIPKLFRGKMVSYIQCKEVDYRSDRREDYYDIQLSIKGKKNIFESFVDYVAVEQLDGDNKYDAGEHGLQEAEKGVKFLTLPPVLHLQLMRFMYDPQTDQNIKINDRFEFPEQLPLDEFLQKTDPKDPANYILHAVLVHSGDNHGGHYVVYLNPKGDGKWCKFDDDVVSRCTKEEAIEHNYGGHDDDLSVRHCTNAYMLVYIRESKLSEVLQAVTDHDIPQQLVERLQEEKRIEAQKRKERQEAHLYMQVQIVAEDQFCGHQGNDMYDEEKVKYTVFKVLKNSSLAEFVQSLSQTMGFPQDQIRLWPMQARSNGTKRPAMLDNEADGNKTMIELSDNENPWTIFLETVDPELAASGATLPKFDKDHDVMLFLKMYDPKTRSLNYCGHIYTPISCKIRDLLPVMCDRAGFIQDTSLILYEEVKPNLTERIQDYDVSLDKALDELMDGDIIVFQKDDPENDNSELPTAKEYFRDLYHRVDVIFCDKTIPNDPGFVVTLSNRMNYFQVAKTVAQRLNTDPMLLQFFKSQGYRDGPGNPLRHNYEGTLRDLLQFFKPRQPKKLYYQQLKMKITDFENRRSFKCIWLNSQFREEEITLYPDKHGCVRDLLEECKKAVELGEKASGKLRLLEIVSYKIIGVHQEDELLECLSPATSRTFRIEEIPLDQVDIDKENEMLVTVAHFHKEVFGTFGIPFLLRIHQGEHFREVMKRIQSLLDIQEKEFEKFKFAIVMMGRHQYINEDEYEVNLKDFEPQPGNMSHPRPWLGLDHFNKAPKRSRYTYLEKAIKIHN
UniProt Q9NR09: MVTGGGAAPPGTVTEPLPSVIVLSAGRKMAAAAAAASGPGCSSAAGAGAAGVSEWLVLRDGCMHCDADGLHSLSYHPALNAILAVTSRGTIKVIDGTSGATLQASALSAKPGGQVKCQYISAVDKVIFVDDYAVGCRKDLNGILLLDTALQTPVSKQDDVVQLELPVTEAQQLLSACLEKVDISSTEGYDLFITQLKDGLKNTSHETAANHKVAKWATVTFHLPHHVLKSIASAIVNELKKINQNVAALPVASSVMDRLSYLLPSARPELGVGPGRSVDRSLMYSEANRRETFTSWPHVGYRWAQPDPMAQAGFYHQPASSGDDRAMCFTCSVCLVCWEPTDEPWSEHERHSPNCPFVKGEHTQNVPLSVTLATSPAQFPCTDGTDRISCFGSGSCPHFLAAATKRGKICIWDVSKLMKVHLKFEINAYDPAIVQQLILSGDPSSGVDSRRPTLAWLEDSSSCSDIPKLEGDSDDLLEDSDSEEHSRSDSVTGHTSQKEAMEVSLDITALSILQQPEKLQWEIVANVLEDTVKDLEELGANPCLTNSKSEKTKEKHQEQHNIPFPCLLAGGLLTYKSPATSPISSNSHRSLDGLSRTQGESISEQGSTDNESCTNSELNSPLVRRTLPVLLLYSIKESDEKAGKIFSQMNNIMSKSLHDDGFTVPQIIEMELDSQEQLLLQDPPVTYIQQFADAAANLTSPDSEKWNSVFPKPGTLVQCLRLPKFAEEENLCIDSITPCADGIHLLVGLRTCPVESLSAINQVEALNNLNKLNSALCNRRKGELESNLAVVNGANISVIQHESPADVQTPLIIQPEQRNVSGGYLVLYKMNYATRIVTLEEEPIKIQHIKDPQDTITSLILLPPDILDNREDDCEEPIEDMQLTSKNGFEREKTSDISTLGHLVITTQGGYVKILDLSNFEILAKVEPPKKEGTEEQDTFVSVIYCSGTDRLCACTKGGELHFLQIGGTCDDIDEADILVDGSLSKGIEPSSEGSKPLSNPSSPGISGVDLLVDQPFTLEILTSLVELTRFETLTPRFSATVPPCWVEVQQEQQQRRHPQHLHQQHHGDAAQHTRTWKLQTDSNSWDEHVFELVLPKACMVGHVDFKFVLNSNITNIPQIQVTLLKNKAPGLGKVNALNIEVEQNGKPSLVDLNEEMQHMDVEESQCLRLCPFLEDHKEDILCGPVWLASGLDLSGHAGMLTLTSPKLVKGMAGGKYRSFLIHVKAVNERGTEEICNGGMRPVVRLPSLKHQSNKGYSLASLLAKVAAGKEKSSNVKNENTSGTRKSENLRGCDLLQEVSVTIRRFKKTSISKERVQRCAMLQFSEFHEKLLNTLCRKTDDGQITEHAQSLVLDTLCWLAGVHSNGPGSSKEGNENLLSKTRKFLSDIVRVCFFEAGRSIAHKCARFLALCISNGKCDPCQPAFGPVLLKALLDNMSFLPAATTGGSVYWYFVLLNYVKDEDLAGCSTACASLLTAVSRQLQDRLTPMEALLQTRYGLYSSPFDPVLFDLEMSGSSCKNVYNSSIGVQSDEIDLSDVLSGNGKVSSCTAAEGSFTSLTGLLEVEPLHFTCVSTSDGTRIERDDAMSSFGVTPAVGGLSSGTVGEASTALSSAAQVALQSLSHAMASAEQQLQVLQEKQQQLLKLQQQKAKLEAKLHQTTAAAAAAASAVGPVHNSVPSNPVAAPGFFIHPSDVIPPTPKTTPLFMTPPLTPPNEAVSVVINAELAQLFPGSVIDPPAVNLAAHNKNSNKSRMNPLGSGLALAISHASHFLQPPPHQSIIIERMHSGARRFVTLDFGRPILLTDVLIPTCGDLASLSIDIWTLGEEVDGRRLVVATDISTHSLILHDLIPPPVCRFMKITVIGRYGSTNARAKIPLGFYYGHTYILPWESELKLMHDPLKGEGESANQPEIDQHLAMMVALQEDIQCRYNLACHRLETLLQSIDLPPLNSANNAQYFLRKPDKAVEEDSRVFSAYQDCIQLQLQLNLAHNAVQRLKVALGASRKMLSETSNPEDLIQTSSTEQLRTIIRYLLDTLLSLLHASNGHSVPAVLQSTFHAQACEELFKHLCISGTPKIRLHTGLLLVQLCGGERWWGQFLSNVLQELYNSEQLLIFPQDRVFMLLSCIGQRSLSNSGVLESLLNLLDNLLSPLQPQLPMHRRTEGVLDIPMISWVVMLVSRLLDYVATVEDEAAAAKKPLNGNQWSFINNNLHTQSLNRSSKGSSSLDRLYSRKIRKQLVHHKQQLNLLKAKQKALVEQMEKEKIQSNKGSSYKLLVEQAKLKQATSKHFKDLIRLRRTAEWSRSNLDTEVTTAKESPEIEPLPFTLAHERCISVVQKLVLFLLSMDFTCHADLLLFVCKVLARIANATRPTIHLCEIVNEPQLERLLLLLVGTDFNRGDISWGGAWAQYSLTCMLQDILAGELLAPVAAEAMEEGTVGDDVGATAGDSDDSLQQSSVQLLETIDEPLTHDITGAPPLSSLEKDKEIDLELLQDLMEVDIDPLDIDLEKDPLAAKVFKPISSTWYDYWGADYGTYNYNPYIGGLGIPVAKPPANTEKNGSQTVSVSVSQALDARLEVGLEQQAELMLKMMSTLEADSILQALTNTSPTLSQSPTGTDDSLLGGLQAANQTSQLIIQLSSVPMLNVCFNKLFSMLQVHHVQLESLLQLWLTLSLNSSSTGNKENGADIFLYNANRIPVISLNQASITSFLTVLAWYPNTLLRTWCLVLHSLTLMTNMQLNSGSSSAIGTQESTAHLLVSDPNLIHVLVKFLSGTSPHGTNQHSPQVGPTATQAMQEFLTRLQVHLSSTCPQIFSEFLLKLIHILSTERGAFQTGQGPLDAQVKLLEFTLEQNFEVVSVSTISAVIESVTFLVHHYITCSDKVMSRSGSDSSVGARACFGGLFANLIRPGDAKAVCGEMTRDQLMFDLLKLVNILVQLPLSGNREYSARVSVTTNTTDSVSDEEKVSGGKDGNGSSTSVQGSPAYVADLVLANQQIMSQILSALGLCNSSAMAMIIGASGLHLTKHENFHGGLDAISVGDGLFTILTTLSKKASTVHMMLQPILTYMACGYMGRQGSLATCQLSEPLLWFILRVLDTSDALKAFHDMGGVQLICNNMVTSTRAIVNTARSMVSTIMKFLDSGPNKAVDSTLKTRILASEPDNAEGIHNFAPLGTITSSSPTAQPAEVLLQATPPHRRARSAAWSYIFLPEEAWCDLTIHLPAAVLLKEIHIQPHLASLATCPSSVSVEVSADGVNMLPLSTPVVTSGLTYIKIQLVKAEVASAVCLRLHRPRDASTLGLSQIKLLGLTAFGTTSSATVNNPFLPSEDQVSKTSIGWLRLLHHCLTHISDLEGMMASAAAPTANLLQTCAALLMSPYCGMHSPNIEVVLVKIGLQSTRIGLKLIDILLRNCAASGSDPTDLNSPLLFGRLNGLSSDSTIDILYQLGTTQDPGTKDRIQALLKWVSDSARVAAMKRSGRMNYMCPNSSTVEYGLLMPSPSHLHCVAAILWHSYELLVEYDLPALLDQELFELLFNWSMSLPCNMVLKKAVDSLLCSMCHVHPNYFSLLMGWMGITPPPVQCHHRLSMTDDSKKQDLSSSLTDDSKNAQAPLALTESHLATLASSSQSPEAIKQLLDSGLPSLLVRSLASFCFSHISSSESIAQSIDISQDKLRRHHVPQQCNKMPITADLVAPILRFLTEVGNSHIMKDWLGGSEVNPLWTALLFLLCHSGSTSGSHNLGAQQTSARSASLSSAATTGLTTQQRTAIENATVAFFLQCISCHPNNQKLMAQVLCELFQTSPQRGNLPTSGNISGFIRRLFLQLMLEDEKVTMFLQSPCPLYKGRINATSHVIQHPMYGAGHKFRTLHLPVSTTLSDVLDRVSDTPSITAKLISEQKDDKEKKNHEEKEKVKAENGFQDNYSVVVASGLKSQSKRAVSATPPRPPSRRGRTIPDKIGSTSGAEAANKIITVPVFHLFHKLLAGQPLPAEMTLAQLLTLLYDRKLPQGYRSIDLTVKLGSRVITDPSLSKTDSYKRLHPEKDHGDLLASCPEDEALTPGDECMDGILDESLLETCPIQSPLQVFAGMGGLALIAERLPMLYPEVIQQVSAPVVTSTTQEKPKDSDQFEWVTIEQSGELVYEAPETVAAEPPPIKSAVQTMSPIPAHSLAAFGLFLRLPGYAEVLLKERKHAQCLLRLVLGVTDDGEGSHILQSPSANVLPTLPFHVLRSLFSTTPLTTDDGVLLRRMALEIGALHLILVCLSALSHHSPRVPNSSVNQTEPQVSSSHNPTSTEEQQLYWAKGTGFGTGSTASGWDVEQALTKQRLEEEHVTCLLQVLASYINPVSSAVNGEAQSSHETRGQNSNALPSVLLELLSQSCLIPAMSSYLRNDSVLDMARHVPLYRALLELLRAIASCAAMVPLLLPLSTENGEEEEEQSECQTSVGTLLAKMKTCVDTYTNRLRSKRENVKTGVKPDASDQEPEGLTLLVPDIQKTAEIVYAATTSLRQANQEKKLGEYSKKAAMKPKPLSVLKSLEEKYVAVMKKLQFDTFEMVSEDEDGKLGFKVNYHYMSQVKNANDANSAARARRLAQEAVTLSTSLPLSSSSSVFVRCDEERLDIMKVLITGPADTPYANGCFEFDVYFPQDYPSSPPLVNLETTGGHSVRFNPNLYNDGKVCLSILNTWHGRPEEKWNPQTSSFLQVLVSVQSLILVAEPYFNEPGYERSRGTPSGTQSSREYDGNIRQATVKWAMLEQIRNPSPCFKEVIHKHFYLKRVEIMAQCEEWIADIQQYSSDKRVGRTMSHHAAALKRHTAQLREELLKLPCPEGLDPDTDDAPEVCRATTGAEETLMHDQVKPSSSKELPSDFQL
UniProt Q15170: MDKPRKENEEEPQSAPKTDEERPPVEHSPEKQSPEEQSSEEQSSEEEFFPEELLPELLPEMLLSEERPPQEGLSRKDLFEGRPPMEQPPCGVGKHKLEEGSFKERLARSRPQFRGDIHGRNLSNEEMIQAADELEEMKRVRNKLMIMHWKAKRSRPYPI

Experiment [2] concerns the target T1, USP11(C318S)-GFP (catalytically inactive USP11, GFP-tagged) (human). The experiment is described as above. This is another data set of the same source.

Read-outs that look alike come from different tables or passages of the source. No constants are given. Whether binding was seen depends on the method and setting. Binding seen in cells or lysates may run through a third protein. A yes stands for co-enrichment or nearness to the bait. Other partners may have been found. Where a sequence is shown, tags or fusion partners need not be part of it.

Regarding MYCBP2 (from UniProt O75592 1-4678), the binding result in experiment [1] was “binds”.
With “USP7 (from UniProt Q93009 1-1102) (enzyme)”, the binding entry in experiment [1] is on record as “binds”.
In the case of BIRC6 (from UniProt Q9NR09 1-4857), the binding result in experiment [1] is listed as “binds”.
Take TCEAL1 (from UniProt Q15170 1-159): in experiment [1], the binding entry is reported as “binds”.
Still for that read-out and setting: the same measure for “VPS15 (PIK3R4), endogenous, interactome hit (from UniProt Q99570 1-1358)”: “binds”.

B1: ZNF598 (protein, UniProt Q86UK7 1-904)
chain: MAAAGGAEGRRAALEAAAAAAPERGGGSCVLCCGDLEATALGRCDHPVCYRCSTKMRVLCEQRYCAVCREELRQVVFGKKLPAFATIPIHQLQHEKKYDIYFADGKVYALYRQLLQHECPRCPELPPFSLFGDLEQHMRRQHELFCCRLCLQHLQIFTYERKWYSRKDLARHRMQGDPDDTSHRGHPLCKFCDERYLDNDELLKHLRRDHYFCHFCDSDGAQDYYSDYAYLREHFREKHFLCEEGRCSTEQFTHAFRTEIDLKAHRTACHSRSRAEARQNRHIDLQFSYAPRHSRRNEGVVGGEDYEEVDRYSRQGRVARAGTRGAQQSRRGSWRYKREEEDREVAAAVRASVAAQQQEEARRSEDQEEGGRPKKEEAAARGPEDPRGPRRSPRTQGEGPGPKETSTNGPVSQEAFSVTGPAAPGCVGVPGALPPPSPKLKDEDFPSLSASTSSSCSTAATPGPVGLALPYAIPARGRSAFQEEDFPALVSSVPKPGTAPTSLVSAWNSSSSSKKVAQPPLSAQATGSGQPTRKAGKGSRGGRKGGPPFTQEEEEDGGPALQELLSTRPTGSVSSTLGLASIQPSKVGKKKKVGSEKPGTTLPQPPPATCPPGALQAPEAPASRAEGPVAVVVNGHTEGPAPARSAPKEPPGLPRPLGSFPCPTPQEDFPALGGPCPPRMPPPPGFSAVVLLKGTPPPPPPGLVPPISKPPPGFSGLLPSPHPACVPSPATTTTTKAPRLLPAPRAYLVPENFRERNLQLIQSIRDFLQSDEARFSEFKSHSGEFRQGLISAAQYYKSCRDLLGENFQKVFNELLVLLPDTAKQQELLSAHTDFCNREKPLSTKSKKNKKSAWQATTQQAGLDCRVCPTCQQVLAHGDASSHQALHAARDDDFPSLQAIARIIT
For B1, the binding entry in experiment [2] was “binds”.

(Values after article PMC8546420.)
